Data published in PubChem BioAssay AID248 (DTP/NCI, 2004).
The list is a part of this screen's results and no random one: it gathers tests that were run many times, whatever their T/C, doses with no T/C, and many T/C values between a quarter and a half above the control. Other doses and runs of a compound stand elsewhere. T/C gives the treated animals as a percentage of the vehicle group. Some doses have a count of surviving animals in place of a T/C: the source holds a T/C of zero for them, seemingly a mark for toxic or unscored doses. Some doses without a T/C left all or most animals alive at the check, yet need not have been tolerated: survival well below the control is almost never listed, so the zero probably covers shortened survival too. Counts of survivors are from the toxicity check (mostly the fifth day) where no day follows; animals may have died later. Schedule codes are those of the source, read here as Q, the interval in days (D) or hours (H), X, the number of doses. Some doses were run more than once; their values stand side by side, smallest first. Some schedule codes hold Z or #, which are not explained here. For survival time, the PubChem record calls one and a half times the control and up active, and a quarter to a half above the control has no call in these data; cut-offs in other NCI protocols can differ. Some T/C values are followed by the survivors on the day toxicity was checked, most often the fifth; without a count, all were alive then.

System: L1210 leukemia ip in BDF1 mice, survival T/C
Experiment: NCI In Vivo Anticancer Drug Screen. Data for tumor model L1210 Leukemia (intraperitoneal) in B6D2F1 (BDF1) mice
Conditions: T/C endpoint: mean survival time, higher T/C = longer survival
[1] = dose: 50.0 mg/kg/injection, schedule: Q01DX009 (ip), vehicle: Klucel (hydroxypropylcellulose) (HPC)
[2] = dose: 100.0 mg/kg/injection, schedule: Q01DX009 (ip), vehicle: Klucel (hydroxypropylcellulose) (HPC)
[3] = dose: 400.0 mg/kg/injection, schedule: Q04DX003 (ip), vehicle: Klucel (hydroxypropylcellulose) (HPC)
[4] = dose: 400.0 mg/kg/injection, schedule: Q01DX001 (ip), vehicle: carboxymethylcellulose (CMC)
[5] = dose: 300.0 mg/kg/injection, schedule: Q01DX001 (ip), vehicle: saline
[6] = dose: 100.0 mg/kg/injection, schedule: Q01DX001 (ip), vehicle: saline
[7] = dose: 200.0 mg/kg/injection, schedule: Q01DX001 (ip), vehicle: saline
[8] = dose: 400.0 mg/kg/injection, schedule: Q01DX001 (ip), vehicle: saline
[9] = dose: 400.0 mg/kg/injection, schedule: Q04DX003 (ip), vehicle: saline

`CC12C(=O)N(C3CCC(=O)NC3=O)C(=O)C1C1CCC2C1` (stereo not given) was tested, and the survivor count (dose: 200.0 mg/kg/injection, schedule: Q04DX003 (ip), vehicle: saline with Tween-80) was 0 of 3 and the survivor count (dose: 400.0 mg/kg/injection, schedule: Q04DX003 (ip), vehicle: saline with Tween-80) was 0 of 3.

With `COc1cccc(C2CCN(C)C2)c1` (stereo not given) the survivor count [1] was 6 of 6, the survivor count [2] was 0 of 6 and the survivor count (dose: 200.0 mg/kg/injection, schedule: Q01DX009 (ip), vehicle: Klucel (hydroxypropylcellulose) (HPC)) was 0 of 6. For the same compound, the survivor count [3] was 0 of 6.

In the case of `O=C(NCCCCCCCCNC(=O)N1CC1)N1CC1`, the T/C (dose: 0.66 mg/kg/injection, schedule: Q01DX009 (ip), vehicle: carboxymethylcellulose (CMC)) was 133 % of control, the survivor count (dose: 12.5 mg/kg/injection, schedule: Q01DX001 (ip), vehicle: carboxymethylcellulose (CMC)) was 1 of 4 and the survivor count (dose: 25.0 mg/kg/injection, schedule: Q01DX001 (ip), vehicle: carboxymethylcellulose (CMC)) was 1 of 4. For the same compound, the survivor count (dose: 100.0 mg/kg/injection, schedule: Q01DX001 (ip), vehicle: carboxymethylcellulose (CMC)) was 0 of 4, the survivor count (dose: 200.0 mg/kg/injection, schedule: Q01DX001 (ip), vehicle: carboxymethylcellulose (CMC)) was 0 of 4 and the survivor count [4] was 0 of 4.

With `O=C(Nc1ccccc1)Nc1cc(C(F)(F)F)ccc1Cl` the survivor count (dose: 200.0 mg/kg/injection, schedule: Q01DX009 (ip), vehicle: saline with Tween-80) was 6 of 6.

With `CCCC(C)NCCOC(=O)Nc1ccccc1` (stereo not given) the survivor count [5] was 0 of 6.

With `COc1cc2c(cc1OC)C(C#N)C2` (stereo not given) the survivor count (dose: 25.0 mg/kg/injection, schedule: Q01DX009 (ip), vehicle: Klucel (hydroxypropylcellulose) (HPC)) was 3 of 6, the survivor count (dose: 25.0 mg/kg/injection, schedule: Q04DX003 (ip), vehicle: Klucel (hydroxypropylcellulose) (HPC)) was 6 of 6 and the survivor count [1] was 3 of 6. The survivor count [2] was 0 of 6, the survivor count (dose: 100.0 mg/kg/injection, schedule: Q04DX003 (ip), vehicle: Klucel (hydroxypropylcellulose) (HPC)) was 0 of 6 and the survivor count (dose: 200.0 mg/kg/injection, schedule: Q04DX003 (ip), vehicle: Klucel (hydroxypropylcellulose) (HPC)) was 0 of 6. For the same compound, the survivor count [3] was 0 of 6.

In the case of `CC1=CC(=O)OC1=O` (tested in a mixture with another compound), the survivor count (dose: 75.0 mg/kg/injection, schedule: Q01DX009 (ip), vehicle: carboxymethylcellulose (CMC)) was 2 of 6, the survivor count (dose: 150.0 mg/kg/injection, schedule: Q01DX009 (ip), vehicle: carboxymethylcellulose (CMC)) was 3 of 6 and the T/C (dose: 300.0 mg/kg/injection, schedule: Q01DX001 (ip), vehicle: carboxymethylcellulose (CMC)) was 126 % of control [5 of 6 alive]. For the same compound, the survivor count (dose: 300.0 mg/kg/injection, schedule: Q01DX009 (ip), vehicle: carboxymethylcellulose (CMC)) was 0 of 6.

`Nc1ccc(Nc2ccc(N)cc2)cc1` was tested, and the survivor count (dose: 20.0 mg/kg/injection, schedule: Q01DX001 (ip), vehicle: saline) was 1 of 4, the survivor count (dose: 40.0 mg/kg/injection, schedule: Q01DX001 (ip), vehicle: saline) was 0 of 4 and the survivor count (dose: 50.0 mg/kg/injection, schedule: Q01DX001 (ip), vehicle: saline) was 0 of 4. The survivor count (dose: 80.0 mg/kg/injection, schedule: Q01DX001 (ip), vehicle: saline) was 0 of 4, the survivor count [6] was 0 of 4 and the survivor count [7] was 0 of 4. The survivor count [8] was 0 of 4.

`CCN(CC)Cc1cc(C=O)ccc1O` was tested, and the survivor count (dose: 75.0 mg/kg/injection, schedule: Q01DX001 (ip), vehicle: saline) was 0 of 6, the survivor count (dose: 150.0 mg/kg/injection, schedule: Q01DX001 (ip), vehicle: saline) was 0 of 6 and the survivor count [5] was 0 of 6.

With `O=C(CC(C(=O)O)N1CCOCC1)c1ccccc1` (stereo not given) the survivor count [3] was 0 of 6.

`C(=N\Nc1nnc(N/N=C/C2CCCCC2)c2ccccc12)/C1CCCCC1` was tested, and the survivor count [6] was 2 of 4, the survivor count [7] was 0 of 4 and the survivor count [8] was 0 of 4.

`O=[N+]([O-])c1c[nH]c2ncnc(Cl)c12` was tested, and the survivor count [4] was 2 of 4.

With `c1cc(-n2nnc3cnccc32)ccn1` the survivor count (dose: 200.0 mg/kg/injection, schedule: Q04DX003 (ip), vehicle: saline) was 0 of 6 and the survivor count [9] was 4 of 6.

For `N=C(N)/C(N)=N\C1=NCCN1`, the T/C (dose: 400.0 mg/kg/injection, schedule: Q01DX009 (ip), vehicle: Klucel (hydroxypropylcellulose) (HPC)) was 145 % of control.

`Cc1c(C)c(C)c(CN2CCCC2)c(C)c1C` was tested, and the survivor count (dose: 50.0 mg/kg/injection, schedule: Q01DX005 (ip), vehicle: Klucel (hydroxypropylcellulose) (HPC)) was 2 of 3, the survivor count (dose: 55.0 mg/kg/injection, schedule: Q01DX009 (ip), vehicle: Klucel (hydroxypropylcellulose) (HPC)) was 2 of 3 and the survivor count (dose: 80.0 mg/kg/injection, schedule: Q01DX009 (ip), vehicle: Klucel (hydroxypropylcellulose) (HPC)) was 1 of 3. The survivor count (dose: 200.0 mg/kg/injection, schedule: Q04DX002 (ip), vehicle: Klucel (hydroxypropylcellulose) (HPC)) was 3 of 3 and the survivor count (dose: 400.0 mg/kg/injection, schedule: Q04DX002 (ip), vehicle: Klucel (hydroxypropylcellulose) (HPC)) was 0 of 3.

With `C[CH2][Pb]([CH2]C)([CH2]C)[O]C(=O)C(Cl)(Cl)Cl` the survivor count (dose: 1.56 mg/kg/injection, schedule: Q01DX009 (ip), vehicle: other) was 3 of 6 and 6 of 6, the survivor count (dose: 3.12 mg/kg/injection, schedule: Q01DX009 (ip), vehicle: other) was 3 of 6 and the survivor count (dose: 6.25 mg/kg/injection, schedule: Q01DX009 (ip), vehicle: other) was 1 of 6 and 1 of 3. The survivor count (dose: 12.5 mg/kg/injection, schedule: Q01DX009 (ip), vehicle: other) was 2 of 3, the survivor count (dose: 25.0 mg/kg/injection, schedule: Q01DX009 (ip), vehicle: other) was 0 of 3 and the survivor count (dose: 50.0 mg/kg/injection, schedule: Q01DX001 (ip), vehicle: other) was 0 of 6. The survivor count (dose: 50.0 mg/kg/injection, schedule: Q04DX002 (ip), vehicle: carboxymethylcellulose (CMC)) was 0 of 3 and 0 of 6, the survivor count (dose: 50.0 mg/kg/injection, schedule: Q04DX003 (ip), vehicle: other) was 0 of 6 and the survivor count (dose: 100.0 mg/kg/injection, schedule: Q01DX001 (ip), vehicle: other) was 0 of 6. For the same compound, the survivor count (dose: 100.0 mg/kg/injection, schedule: Q04DX002 (ip), vehicle: carboxymethylcellulose (CMC)) was 0 of 3 and 0 of 6, the survivor count (dose: 200.0 mg/kg/injection, schedule: Q04DX002 (ip), vehicle: carboxymethylcellulose (CMC)) was 0 of 3 and 0 of 6 and the survivor count (dose: 400.0 mg/kg/injection, schedule: Q04DX002 (ip), vehicle: carboxymethylcellulose (CMC)) was 0 of 3 and 0 of 6.

With `CN(C)CCOC(=O)c1ccccc1CBr` the survivor count (dose: 87.5 mg/kg/injection, schedule: Q01DX009 (ip), vehicle: saline) was 0 of 6, the survivor count (dose: 175.0 mg/kg/injection, schedule: Q01DX009 (ip), vehicle: saline) was 0 of 6 and the survivor count (dose: 350.0 mg/kg/injection, schedule: Q01DX009 (ip), vehicle: saline) was 0 of 6.

In the case of `COc1ccc(C2(C(=O)O)CCCC2)cc1`, the survivor count (dose: 400.0 mg/kg/injection, schedule: Q01DX009 (ip), vehicle: saline with Tween-80) was 2 of 6.

In the case of `O=[N+]([O-])c1ccc(N=NN(CCF)CCF)cc1`, the survivor count (dose: 12.5 mg/kg/injection, schedule: Q01DX Z (ip), vehicle: saline) was 3 of 6, the survivor count (dose: 25.0 mg/kg/injection, schedule: Q01DX Z (ip), vehicle: saline) was 0 of 6 and the survivor count (dose: 50.0 mg/kg/injection, schedule: Q01DX Z (ip), vehicle: saline) was 0 of 6. The survivor count (dose: 100.0 mg/kg/injection, schedule: Q01DX Z (ip), vehicle: saline) was 0 of 6 and the survivor count (dose: 300.0 mg/kg/injection, schedule: Q01DX Z (ip), vehicle: saline) was 0 of 6.

For `Nc1ncnc2c1ncn2CCCCl`, the survivor count [9] was 0 of 6.
